Measurements reported in PubChem BioAssay AID720505 (Drosophila RNAi Screening Center, 2013).
The deposit covers about 20,000 reagents; below is a random part of those that have a named target and a result. In the full data, about 2,100 (10%) got an active call. 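Raw plate signals without normalisation; calls rest on control-based scores that were not deposited; replicate 2 separates called from uncalled poorly.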 A number with no mark means an inactive call. Reagent sequences are not shown. Not given: the amount of reagent, the time to read-out.

Assay: 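Genes needed for store-operated calcium entry in fly cells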 (primary screen)
Cell system: Drosophila S2R+ cells
Knock-down reagent: long dsRNA against Drosophila genes
Conditions: thapsigargin (2 µM) in calcium-free buffer to empty internal stores, then 2 mM calcium added back
Measured: 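Stores emptied by 2 µM thapsigargin without calcium, then 2 mM calcium re-added; fluo-4 fluorescence followed by FLIPR in 384-well plates, per-well averaged endpoint, raw; two screen passes, some wells retested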
Scale: calcium signal and retest calcium signal: higher = more calcium entry after store depletion
Active means: 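Knock-downs counted as hits when calcium entry dropped relative to STIM1 positive and Rho1 negative controls present on each plate; roughly 1500 genes called, with reductions of differing size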
Meaning of the calls: active = called as lowering calcium entry; inactive = not called

no.	gene knocked down	DRSC id	calcium signal, replicate 1	calcium signal, replicate 2	retest calcium signal, replicate 1	retest calcium signal, replicate 2
1	Vm26Ab (Vitelline membrane 26Ab)	DRSC03473	119	95	80.7	95.2
2	CG6983	DRSC10757	74.1 (active)	82.8		
3	140up (upstream of RpII140)	DRSC12634	97	123		
4	Gart (GART trifunctional enzyme)	DRSC03481	164	113		
5	CG13300	DRSC09974	88.4	77.1		
6	E(bx) (Enhancer of bithorax)	DRSC08172	113	145		
7	E(bx) (Enhancer of bithorax)	DRSC08509	83.5	83.4		
8	E(bx) (Enhancer of bithorax)	DRSC08583	75.5 (active)	80.1		
9	amrt (amaretto)	DRSC19378	82.5	83.7		
10	Fatp3 (Fatty acid transport protein 3)	DRSC04366	92.5	187		
11	Upf1 (Upf1 RNA helicase)	DRSC19667	121	145		
12	CG13040	DRSC09921	74.6 (active)	83.3		
13	Gar1 (Gar1 ribonucleoprotein)	DRSC04441	63.9	216		
14	CG13842	DRSC14692	135	142		
15	CG9663	DRSC00724	128	221		
16	CG7530	DRSC16255	148	142	98.4	103
17	CG15711	DRSC06582	174	188		
18	CG5897	DRSC10555	64.4 (active)	55		
19	AANATL5 (Arylalkylamine N-acetyltransferase-like 5)	DRSC05994	121	138		
20	inaE (inactivation no afterpotential E)	DRSC19376	73 (active)	88.1		
21	inaE (inactivation no afterpotential E)	DRSC19377	90.9 (active)	58.5		
22	inaE (inactivation no afterpotential E)	DRSC19379	75.4	80	84.6	95.1
23	inaE (inactivation no afterpotential E)	DRSC19726	78.1	86.5		
24	Hrb27C (Heterogeneous nuclear ribonucleoprotein at 27C)	DRSC03347	78.4	159		
25	CG17784	DRSC15268	263	152		
26	CG32459	DRSC11852	90.9	163		
27	CG15705	DRSC06576	148	164		
28	Dna2 (DNA replication helicase/nuclease 2)	DRSC18254	132	125		
29	Nprl3 (Nitrogen permease regulator-like 3)	DRSC11044	63 (active)	87.9		
30	CG5567	DRSC10517	133	89.4		
31	Plekhm1 (Pleckstrin homology and RUN domain containing M1)	DRSC04527	64.5	161		
32	CG16926	DRSC06637	142	134		
33	CG2004	DRSC18200	283	110		
34	CG11755	DRSC14374	128	132		
35	CG3088	DRSC10352	117	140		
36	CG7990	DRSC19296	66.3 (active)	88.9		
37	CG7990	DRSC20069	147	123		
38	CG7990	DRSC23195	110	150		
39	CG17163	DRSC20901	71.8 (active)	155		
40	CG11841	DRSC14399	74.4	89.5		
41	CG8840	DRSC00713	129	100		
42	CG12321	DRSC14499	186	284		
43	Cyp4c3 (Cytochrome P450 4c3)	DRSC16631	117	150		
44	CCKLR-17D1 (Cholecystokinin-like receptor at 17D1)	DRSC20010	60.3 (active)	87.5		
45	CCKLR-17D1 (Cholecystokinin-like receptor at 17D1)	DRSC20011	41.7 (active)	91.2		
46	CCKLR-17D1 (Cholecystokinin-like receptor at 17D1)	DRSC20012	61.4 (active)	109		
47	alrm (astrocytic leucine-rich repeat molecule)	DRSC14436	300	162		
48	CG13962	DRSC02304	124	104		
49	lncRNA:CR42735 (retired record)	DRSC00921	96.3	154		
50	CG5880	DRSC15906	110	143		
51	klhl10 (kelch like family member 10)	DRSC05274	95.6	153		
52	klhl10 (kelch like family member 10)	DRSC19171	81.3	108		
53	klhl10 (kelch like family member 10)	DRSC20750	75.6 (active)	205		
54	klhl10 (kelch like family member 10)	DRSC20925	225	80.3		
55	CG12395	DRSC19453	100	87.8		
56	Erasp (Endoplasmic reticulum stress-associated serine protease)	DRSC07111	135	121		

No new results follow: an excerpt of the list.
no.	gene knocked down	DRSC id	calcium signal, replicate 1	calcium signal, replicate 2	retest calcium signal, replicate 1	retest calcium signal, replicate 2
49	lncRNA:CR42735 (retired record)	DRSC00921	96.3	154		
50	CG5880	DRSC15906	110	143		
51	klhl10 (kelch like family member 10)	DRSC05274	95.6	153		
52	klhl10 (kelch like family member 10)	DRSC19171	81.3	108		
53	klhl10 (kelch like family member 10)	DRSC20750	75.6 (active)	205		
